This assay deals with MCF-7 cells. The assay can be described thus: MTT cytotoxicity / chemosensitivity assay, sensitive tumor cells. It is filed as cell-based. Particulars: Homo sapiens, MCF7; MCF-7, free DOX. On the procedure:
The cytotoxicity of didymin on various cell lines was examined by MTT assay as previously reported (Yao et al., [2019]). The didymin solution was prepared by dissolving in DMSO at different concentrations and diluted with the fresh medium right before the treatment. The didymin inclusion complex was dispersed in the sterilized water and then diluted with the fresh medium before treatment. Experiments involving healthy cells (HUVEC, H9C2, and PC12) by culturing 100 μL cell suspension (5 × 10^4 cell/mL) in 96 well plates. After 24 h incubation, the didymin or didymin inclusion complexes contained medium was used to replace the overnight medium and cultured for 48 h, respectively. After that, the MTT solution at the concentration of 5 mg/mL was added to each well. After 4 h incubation, the medium was removed, and the MTT formazan was dissolved by DMSO. Then the DMSO solution is measured using a microplate reader with the absorbance wavelength at 570 nm. The untreated cells were used as control. The cell viability (%) was calculated as follows, cell viability (%) = Asample/Acontrol ×100.
The MCF-7 and MCF-7/ADR cells cytotoxicity of the combination of didymin and doxorubicin were evaluated by MTT assay, as mentioned above.

With `COc1cccc2c1C(=O)c1c(O)c3c(c(O)c1C2=O)C[C@@](O)(C(=O)CO)C[C@@H]3O[C@H]1C[C@H](N)[C@H](O)[C@H](C)O1` [DOX, doxorubicin, reference compound], the concentration for half-maximal inhibition (IC50) – broadly, the concentration that gives 50% inhibition – was found to be 2260 ± 470 nM.

The record behind these values is paper PMC6968488, “In vitro and in vivo evaluation of didymin cyclodextrin inclusion complexes: characterization and chemosensitization activity” (Drug Delivery, 2019).
